{"source": "patent US8758816B2", "about": "“Compositions comprising azelastine and methods of use thereof” (priority 2004, dated 2014)", "origin": "cited, not measured here", "details": "U.S. Pat. No. 5,164,194; cited from earlier work", "note": "Counter-ions that a name gives are not always drawn."}
{"compound": "CN1CCCC(n2nc(Cc3ccc(Cl)cc3)c3ccccc3c2=O)CC1", "note": "(racemic) [Azelastine, (±)-1-(2H)-phthalazinone, 4-[(4-chlorophenyl)methyl]-2-(hexahydro-1-methyl-1H-azepin-4-yl)-, mono-hydrochloride]", "values": [{"measurement": "dilution at which the bitter taste was still found unpleasant", "result": "1×10^6"}]}
